Earlier results on one compound are cited in US10071957B2, “N-substituted benzamides and methods of use thereof” (GENENTECH, INC., priority 2012, dated 2018).

For this data set the following is noted: administered topically; cited from earlier work.

With `CCN(CC)CC(=O)Nc1c(C)cccc1C` [lidocaine], the plasma concentrations result is listed as “about 1 μM”.
